PubChem BioAssay AID1224826 | NIAID | 2016

- Aim: 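Regulators of Tlr4 signalling leading to Tnf-alpha expression in macrophages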 (primary screen)
- Cell system: RAW264.7 G9 macrophages from mouse bearing reporters for p65 (GFP) and the Tnf promoter (mCherry)
- Reagents: siRNA pool against mouse genes, 100 nM
- Duration: 16 h of LPS stimulation, after 2 days of siRNA transfection
- Challenge: bacterial lipopolysaccharide (Salmonella minnesota R595), 10 ng/ml
- Detection: 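Nuclear mCherry signal of the Tnf promoter reporter measured by imaging after background removal, scaled to each plate median and turned into robust z-scores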
- Direction: Tnf reporter robust z-score: higher = stronger Tnf promoter reporter signal after LPS; Tnf reporter intensity: higher = stronger Tnf promoter reporter signal
- Hit rule: 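Called active when robust z-score is at most -1.3, matching the median of the Tlr4 knock-down control, or over 3; control wells and wells with under 50 cells never active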
- Calls: active = Tnf reporter clearly lowered or raised; inactive = no clear change in Tnf reporter
In all, the deposit lists about 17,000 reagents; shown is an unselected part. In the full data, about 1,110 (6.6%) were called active. 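Active means lowered or raised reporter signal; replicate intensities are raw and not normalised per plate.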 Unmarked entries are inactive. Reagents against one gene are numbered here. No sequences are given here.

gene	reagent no.	Tnf reporter robust z-score	fewer than 50 cells in well	Tnf reporter intensity, replicate 1	Tnf reporter intensity, replicate 2
Sertad2 (SERTA domain containing 2)	1	0.22	enough cells in well	282	246
Bex3 (brain expressed X-linked 3)	1	0.12	enough cells in well	217	216
Aoc1 (amine oxidase, copper-containing 1)	1	-1.23	enough cells in well	93.3	91.7
Dnajc8 (DnaJ heat shock protein family (Hsp40) member C8)	1	6.51 (active)	enough cells in well	457	459
Coq8b (coenzyme Q8B)	1	-0.04	enough cells in well	217	135
Zbtb44 (zinc finger and BTB domain containing 44)	1	-0.8	enough cells in well	112	107
Zbtb44 (zinc finger and BTB domain containing 44)	2	-0.59	enough cells in well	101	112
Ccl9 (C-C motif chemokine ligand 9)	1	0.2	enough cells in well	146	229
Cd4 (CD4 antigen)	1	0.43	enough cells in well	244	164
Wdr59 (WD repeat domain 59)	1	0.65	enough cells in well	236	160
Smim3 (small integral membrane protein 3)	1		fewer than 50 cells per well; well left out of calls	125	46.4
Prr9 (proline rich 9)	1	-0.09	enough cells in well	237	157
Fnbp4 (formin binding protein 4)	1	0.28	enough cells in well	215	187
Slc25a28	1	-0.55	enough cells in well	109	54.1
Helz2 (helicase with zinc finger 2, transcriptional coactivator)	1		fewer than 50 cells per well; well left out of calls	83.2	134
Tmem101 (transmembrane protein 101)	1	2.32	enough cells in well	383	144
Gpbar1 (G protein-coupled bile acid receptor 1)	1	0.34	enough cells in well	236	334
Exosc1 (exosome component 1)	1	-0.54	enough cells in well	190	120
Zfp729a (zinc finger protein 729a)	1	0.77	enough cells in well	161	252
Sec16b (SEC16 homolog B, endoplasmic reticulum export factor)	1	1.02	enough cells in well	167	176
Fam168b (family with sequence similarity 168, member B)	1	5.73 (active)	enough cells in well	437	492
Ints12 (integrator complex subunit 12)	1	-0.38	enough cells in well	247	62.1
Or10s1 (olfactory receptor family 10 subfamily S member 1)	1	-0.4	enough cells in well	122	121

The list goes on, starting with the last 5 of the part before.
gene	reagent no.	Tnf reporter robust z-score	fewer than 50 cells in well	Tnf reporter intensity, replicate 1	Tnf reporter intensity, replicate 2
Zfp729a (zinc finger protein 729a)	1	0.77	enough cells in well	161	252
Sec16b (SEC16 homolog B, endoplasmic reticulum export factor)	1	1.02	enough cells in well	167	176
Fam168b (family with sequence similarity 168, member B)	1	5.73 (active)	enough cells in well	437	492
Ints12 (integrator complex subunit 12)	1	-0.38	enough cells in well	247	62.1
Or10s1 (olfactory receptor family 10 subfamily S member 1)	1	-0.4	enough cells in well	122	121
D930020B18Rik (RIKEN cDNA D930020B18 gene)	1	-1.64 (active)	enough cells in well	66.6	63.4
Vmn2r29 (vomeronasal 2, receptor 29)	1	1.55	enough cells in well	293	268
Trim31 (tripartite motif-containing 31)	1	-0.18	enough cells in well	195	193
4833408A19Rik (RIKEN cDNA 4833408A19 gene)	1		fewer than 50 cells per well; well left out of calls	134	78.1
Psma2 (proteasome subunit alpha 2)	1	0.29	enough cells in well	281	202
Fanci (Fanconi anemia, complementation group I)	1	-0.13	enough cells in well	200	195
Stk4 (serine/threonine kinase 4)	1		fewer than 50 cells per well; well left out of calls	134	93.9
Nudt16 (nudix hydrolase 16)	1		fewer than 50 cells per well; well left out of calls	307	76
Abi3bp (ABI family member 3 binding protein)	1	1.98	enough cells in well	329	257
Akirin1 (akirin 1)	1	-1.12	enough cells in well	122	80.9
Kif3a (kinesin family member 3A)	1	-0.02	enough cells in well	233	153
Or7e169 (olfactory receptor family 7 subfamily E member 169)	1	1.4	enough cells in well	386	134
Far1 (fatty acyl CoA reductase 1)	1		fewer than 50 cells per well; well left out of calls	159	52.1
Dtx2 (deltex 2, E3 ubiquitin ligase)	1	-0.71	enough cells in well	194	139
Pdcl3 (phosducin-like 3)	1	-1.29	enough cells in well	81.8	76.6
Pcdhga5 (protocadherin gamma subfamily A, 5)	1	1.1	enough cells in well	220	165
Prss50 (serine protease 50)	1		fewer than 50 cells per well; well left out of calls	78.3	57.6
Atpsckmt (ATP synthase C subunit lysine N-methyltransferase)	1	0.31	enough cells in well	177	182
Pvalb (parvalbumin)	1	-0.98	enough cells in well	91.7	110
Mrpl2 (mitochondrial ribosomal protein L2)	1	2.8	enough cells in well	482	183
Sowahc (sosondowah ankyrin repeat domain family member C)	1		fewer than 50 cells per well; well left out of calls	231	103
Pot1a (protection of telomeres 1A)	1	0.01	enough cells in well	238	200
Chka (choline kinase alpha)	1		fewer than 50 cells per well; well left out of calls	157	125
Rab23 (RAB23, member RAS oncogene family)	1	0.1	enough cells in well	279	239
Or9r7 (olfactory receptor family 9 subfamily R member 7)	1	-0.21	enough cells in well	59.7	150
Kdm5d (lysine demethylase 5D)	1	-0.51	enough cells in well	179	95.2
Orc3 (origin recognition complex, subunit 3)	1	1.39	enough cells in well	220	191
Bmp4 (bone morphogenetic protein 4)	1	1.62	enough cells in well	250	216
Trh (thyrotropin releasing hormone)	1	-0.29	enough cells in well	180	239
C5ar1 (complement component 5a receptor 1)	1	-0.87	enough cells in well	122	261
Helt (helt bHLH transcription factor)	1	0.93	enough cells in well	352	196
Kcnk13 (potassium channel, subfamily K, member 13)	1	1.02	enough cells in well	285	229
Ttc41 (tetratricopeptide repeat domain 41)	1	-0.46	enough cells in well	183	166
Nufip1 (nuclear FMR1 interacting protein 1)	1	-0.66	enough cells in well	168	99.2
Spata1 (spermatogenesis associated 1)	1	-0.03	enough cells in well	204	65.9
